Experimental data reported in article PMC11349225.
Results are given in words; binding and its absence hold for the method and conditions named. In cells and extracts the contact can be indirect. Here binding means that the protein was enriched with, or labelled near, the bait; the list need not be complete.

Target: A. japonicus Myc (AjMyc), endogenous (Apostichopus japonicus (endogenous in coelomocytes))
Assay: affinity purification with mass spectrometry; immunoprecipitation from coelomocyte lysate with anti-AjMyc antibodies or pre-immune serum, followed by MS (PXD051548)

B1: A. japonicus OTU domain-containing ubiquitin aldehyde-binding protein 1 (AjOTUB1), endogenous (enzyme, UniProt A0AB39JB66 1-266)
chain: MAENPDNKIDEEIERLTGMVRDEAILAQQDRIQKEVEDSNALVSERLPLLILKEEYQSDPIYSKKIEDMNASFPYIRKTRGDGNCFFRAFGFAYMEKLLSDKAELHRFKEIIEKSKDTLISLGCPSFTLMDFHDTFMEVVNQLEEKPSLSELVATYCDQGMSDYLVVYLRLLTSLELQKEAEFYQNFVEGNRTVKEFCSQEVEPMYKESDHIHIIALTSYLGVGVRVVYLDRGENQKVNHHDFPEGMPPQIALLYRPGHYDVLYGD
binding: binds
